# Test results published in paper PMC7862700.
# The chains behind the UniProt entries cited, without tags or fusion partners. Where a name states a change or a piece, a line headed by the entry shows the natural chain unless it says otherwise.
# UniProt Q01892: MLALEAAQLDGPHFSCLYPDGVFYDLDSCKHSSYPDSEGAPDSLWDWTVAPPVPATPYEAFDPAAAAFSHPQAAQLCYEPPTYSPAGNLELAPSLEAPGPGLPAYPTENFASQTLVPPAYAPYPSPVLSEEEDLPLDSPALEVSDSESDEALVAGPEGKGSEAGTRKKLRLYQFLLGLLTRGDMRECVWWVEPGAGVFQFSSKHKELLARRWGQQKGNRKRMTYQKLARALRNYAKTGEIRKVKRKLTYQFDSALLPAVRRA
# This is a selection; strong and weak results do not stand in their true shares. At the low end of the ranking the order means little.
# Experiments:
# Test in all cases: DAPPL (digital affinity profiling via proximity ligation, sequencing)
# Conditions in all cases: 10 mM Tris-HCl pH 7.5, 50 mM NaCl, 1 mM DTT, 4% glycerol, room temperature, 30 min; GST-TFs on glutathione beads, 16-mer random dsDNA library, 0.1% …; high values mean tight binding; double strand, one strand shown; scale: fold enrichment (6-mer frequency, TF over GST control)
# EHF = biological target: T1, EHF (UniProt Q9NZC4)
# T1 sequence: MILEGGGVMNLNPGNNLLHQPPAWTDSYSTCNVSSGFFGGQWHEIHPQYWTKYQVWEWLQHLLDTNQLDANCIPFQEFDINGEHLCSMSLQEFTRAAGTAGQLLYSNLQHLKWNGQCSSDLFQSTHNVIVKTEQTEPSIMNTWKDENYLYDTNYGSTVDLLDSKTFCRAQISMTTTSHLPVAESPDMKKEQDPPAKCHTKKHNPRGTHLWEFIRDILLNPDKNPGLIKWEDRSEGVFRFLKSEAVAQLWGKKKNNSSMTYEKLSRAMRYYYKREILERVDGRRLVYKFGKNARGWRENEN
# SPIB = SPIB (UniProt Q01892)
# ETV3L = biological target: T2, ETV3L (UniProt Q6ZN32)
# T2 sequence: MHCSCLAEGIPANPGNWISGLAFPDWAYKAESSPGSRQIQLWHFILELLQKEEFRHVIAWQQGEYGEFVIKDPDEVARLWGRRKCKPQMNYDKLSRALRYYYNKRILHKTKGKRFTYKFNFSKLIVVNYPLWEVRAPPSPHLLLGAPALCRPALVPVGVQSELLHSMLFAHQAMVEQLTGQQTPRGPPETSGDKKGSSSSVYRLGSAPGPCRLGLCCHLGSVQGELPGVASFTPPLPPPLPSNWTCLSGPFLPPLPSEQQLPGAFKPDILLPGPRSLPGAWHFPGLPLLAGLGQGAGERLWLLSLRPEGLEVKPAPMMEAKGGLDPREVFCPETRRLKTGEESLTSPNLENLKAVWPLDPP
sequence,measurement,setting,value
CTTCCT,binding signal,EHF,3.28
TGGTTT,binding signal,EHF,1.48
TGCGCT,binding signal,EHF,1.25
ACTTAC,binding signal,EHF,1.28
TAACAC,binding signal,EHF,1.21
ATTGCC,binding signal,EHF,1.24
ATATCG,binding signal,EHF,1.13
TCTCAC,binding signal,EHF,1.39
GTCTTA,binding signal,EHF,1.08
GTAACA,binding signal,EHF,1.21
CTCATG,binding signal,EHF,1.23
TTGCAC,binding signal,EHF,1.21
TCTTAC,binding signal,EHF,1.2
CTTACC,binding signal,EHF,1.17
AACTAA,binding signal,EHF,1.42
CCTACT,binding signal,EHF,1.69
CGCGTC,binding signal,EHF,1.25
CCCGGA,binding signal,EHF,2.95
CCTCAT,binding signal,SPIB,1.33
same,binding signal,ETV3L,1.37
TTGATT,binding signal,EHF,1.26
CTAAGC,binding signal,EHF,1.14
AACGTA,binding signal,SPIB,0.953
same,binding signal,ETV3L,0.975
GTTACG,binding signal,EHF,1.03
same,binding signal,SPIB,0.958
CTAATC,binding signal,SPIB,1.45
CTCTTC,binding signal,SPIB,1.84
CCGTCC,binding signal,EHF,1.42
same,binding signal,SPIB,1.25
CATCTT,binding signal,EHF,1.2
same,binding signal,SPIB,1.21
GGCCTA,binding signal,EHF,1.23
same,binding signal,SPIB,1.04
TATTCT,binding signal,SPIB,1.19
CTTGAC,binding signal,EHF,1.14
same,binding signal,SPIB,1.19
CGAATA,binding signal,SPIB,1.11
TTAGAA,binding signal,EHF,1.14
same,binding signal,SPIB,1.03
TCTTAG,binding signal,EHF,1.21
same,binding signal,SPIB,1.09
ACTCCC,binding signal,EHF,1.38
same,binding signal,SPIB,1.42
GACATC,binding signal,EHF,1.35
same,binding signal,SPIB,1.3
CTAGGT,binding signal,EHF,1.09
same,binding signal,SPIB,1.13
ACAGAT,binding signal,EHF,1.03
same,binding signal,SPIB,0.969
TATCCG,binding signal,EHF,2.48
same,binding signal,SPIB,2.8
GCTCGC,binding signal,SPIB,1.42
AACACA,binding signal,EHF,1.38
same,binding signal,SPIB,1.35
ACGTTA,binding signal,SPIB,1.06
TATGGA,binding signal,SPIB,1.17
ACGATC,binding signal,EHF,0.956
same,binding signal,SPIB,1.08
CTTGTC,binding signal,EHF,1.19
same,binding signal,SPIB,1.23
CTAAGA,binding signal,SPIB,1.24
CTCCTA,binding signal,EHF,1.25
same,binding signal,SPIB,1.4
TTAAGT,binding signal,EHF,1.15
same,binding signal,SPIB,1.2
CACATT,binding signal,EHF,1.23
same,binding signal,SPIB,1.12
CGAGCT,binding signal,EHF,1.13
same,binding signal,SPIB,1.04
TTGAAC,binding signal,SPIB,1.12
TTGTCC,binding signal,SPIB,1.34
CGCCCT,binding signal,SPIB,1.36
CAATCC,binding signal,SPIB,1.2
TGTGGA,binding signal,EHF,0.999
same,binding signal,SPIB,1.1
GCATTC,binding signal,EHF,1.07
same,binding signal,SPIB,1.12
CTGCCT,binding signal,EHF,1.33
same,binding signal,SPIB,1.21
GATTCC,binding signal,EHF,1.15
same,binding signal,SPIB,1.16
CTAACG,binding signal,EHF,1.13
same,binding signal,SPIB,1.11
TAAACG,binding signal,EHF,1.17
same,binding signal,SPIB,1.19
GCCTAT,binding signal,EHF,1.17
same,binding signal,SPIB,1.21

# Some of the entries above, reformatted:
sequence	measurement	setting	value
AACGTA	binding signal	SPIB	0.953
same	binding signal	ETV3L	0.975
GTTACG	binding signal	EHF	1.03
